The list shows a part of the results. Single values are uncertain, as repeats are few or missing.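 The apoptosis fraction was the count of cleaved-PARP antibody-stained nuclei relative to all DNA-stained nuclei, imaged in 1,536-well plates. Screening doses were set so most cells survived, and baseline and induced cleaved-PARP levels vary greatly across cell lines.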
How the values were obtained:
Assay in all cases: cleaved PARP positive nuclei fraction relative to DMSO control; melanoma cells; higher = more apoptosis
Conditions in all cases: library dose: low library concentration; 72 h
A101D = tested on: A101D
A2058 = tested on: A2058
A375 = tested on: A375
C32 = tested on: C32
CBRC008 = tested on: CBRC008 (line from a melanoma biopsy)
CBRC013 = tested on: CBRC013 (line from a melanoma biopsy)
CBRC014 = tested on: CBRC014 (line from a melanoma biopsy)
CBRC016 = tested on: CBRC016 (line from a melanoma biopsy)
CBRC017 = tested on: CBRC017 (line from a melanoma biopsy)
COLO792 = tested on: COLO792
COLO800 = tested on: COLO800
COLO829 = tested on: COLO829
G361 = tested on: G361
IPC-298 = tested on: IPC-298
IST-MEL1 = tested on: IST-MEL1
LOXIMVI = tested on: LOXIMVI
MEL-HO = tested on: MEL-HO
501Mel = tested on: 501Mel
LB2518-MEL = tested on: LB2518-MEL
CBRC034 = tested on: CBRC034 (line from a melanoma biopsy)

SMILES	cleaved PARP positive nuclei fraction (A101D)	cleaved PARP positive nuclei fraction (A2058)	cleaved PARP positive nuclei fraction (A375)	cleaved PARP positive nuclei fraction (C32)	cleaved PARP positive nuclei fraction (CBRC008)	cleaved PARP positive nuclei fraction (CBRC013)	cleaved PARP positive nuclei fraction (CBRC014)	cleaved PARP positive nuclei fraction (CBRC016)	cleaved PARP positive nuclei fraction (CBRC017)	cleaved PARP positive nuclei fraction (COLO792)	cleaved PARP positive nuclei fraction (COLO800)	cleaved PARP positive nuclei fraction (COLO829)	cleaved PARP positive nuclei fraction (G361)	cleaved PARP positive nuclei fraction (IPC-298)	cleaved PARP positive nuclei fraction (IST-MEL1)	cleaved PARP positive nuclei fraction (LOXIMVI)	cleaved PARP positive nuclei fraction (MEL-HO)	cleaved PARP positive nuclei fraction (501Mel)	cleaved PARP positive nuclei fraction (LB2518-MEL)	cleaved PARP positive nuclei fraction (CBRC034)
CS(=O)(=O)CCNCc1ccc(-c2ccc3ncnc(Nc4ccc(OCc5cccc(F)c5)c(Cl)c4)c3c2)o1 [lapatinib] + COc1cc(Nc2ncc(F)c(Nc3ccc4c(n3)NC(=O)C(C)(C)O4)n2)cc(OC)c1OC [Tamatinib] (first compound 0.8 µM, partner dose 0.4 µM)	55.1%	66.1%	116%	95%	195%	70.9%	86.8%	98.7%	115%	209%	41.1%	148%	176%	116%	84%	52.9%	102%			
CNC(=O)c1cc(Oc2ccc(NC(=O)Nc3ccc(Cl)c(C(F)(F)F)c3)cc2)ccn1 [sorafenib] + O=C(O)C(=O)Nc1sc2c(c1C(=O)O)CCNC2 [TCS401] (first compound 0.4 µM, partner dose 1.66667 µM)	18.1%	89.3%		81.2%	143%		77.5%	79.5%	169%	63.2%	122%	88.7%	90.3%	63.8%	435%	166%		307%	31.9%	
Cn1c(=O)n(-c2ccc(C(C)(C)C#N)cc2)c2c3cc(-c4cnc5ccccc5c4)ccc3ncc21 + CN(NC(=O)CC(=O)NN(C)C(=S)c1ccccc1)C(=S)c1ccccc1 [STA4783] (first compound 0.004 µM, partner dose 0.006 µM)	103%	141%	1300%	230%	826%	74.6%	485%	119%	143%	208%	125%	72.5%	137%	90.8%	118%	37.1%	79.2%			
CO[C@H]1C[C@@H]2CC[C@@H](C)[C@@](O)(O2)C(=O)C(=O)N2CCCC[C@H]2C(=O)O[C@H]([C@H](C)C[C@@H]2CC[C@@H](OCCO)[C@H](OC)C2)CC(=O)[C@H](C)/C=C(\C)[C@@H](O)[C@@H](OC)C(=O)[C@H](C)C[C@H](C)/C=C/C=C/C=C/1C [everolimus] + Cc1ccc(NC(=O)c2cccc(N(C)C)c2)cc1NC(=O)c1ccc(O)cc1 [ZM336372] (first compound 0.02 µM, partner dose 2 µM)	50.6%	185%	220%	215%	368%	57%	110%	167%	92.6%	102%	81.5%	123%	165%	103%	118%	66.3%	117%			
O=C(O)c1ccc2c(c1)nc(Nc1cccc(Cl)c1)c1ccncc12 + C=CCn1c(=O)c2cnc(Nc3ccc(N4CCN(C)CC4)cc3)nc2n1-c1cccc(C(C)(C)O)n1 [MK1775] (first compound 0.4 µM, partner dose 0.02 µM)	216%	86.1%	112%	96.9%	181%	126%	152%	272%	137%	156%	56.4%	41.9%	161%	98.7%	72.3%	64.1%	71.2%			
CNC(=O)c1cc(Oc2ccc(NC(=O)Nc3ccc(Cl)c(C(F)(F)F)c3)cc2)ccn1 [sorafenib] + CCc1ccc(CCOc2ccc(CC3SC(=O)NC3=O)cc2)nc1 [pioglitazone] (first compound 0.4 µM, partner dose 2 µM)	13.9%	88.9%		104%	120%		88.7%	66.9%	93.1%	124%	90.4%	94.6%	202%	62.2%	69.4%	71.9%		110%	93.9%	
Nc1ncn([C@H]2C[C@H](O)[C@@H](CO)O2)c(=O)n1 [decitabine] + Cn1cncc1[C@@](N)(c1ccc(Cl)cc1)c1ccc2c(c1)c(-c1cccc(Cl)c1)cc(=O)n2C [tipifarnib] (first compound 0.1 µM, partner dose 0.01 µM)	82.6%	156%	124%	74.9%	170%	102%	88%	37.9%	133%	90.3%	99.5%	124%	73.7%	540%	309%	116%	211%			
CC(C)C[C@H](NC(=O)[C@H](Cc1ccccc1)NC(=O)c1cnccn1)B(O)O [Bortezomib] + Clc1ccc(Nc2nnc(Cc3ccncc3)c3ccccc23)cc1 [vatalanib] (first compound 0.001 µM, partner dose 2 µM)	430%	92.5%	115%	94.3%	1350%		261%	1060%	501%	70%	86.1%	213%	1860%	227%	145%	197%	115%			236%
C[C@@H](Oc1cc(-c2cnn(C3CCNCC3)c2)cnc1N)c1c(Cl)ccc(F)c1Cl [Crizotinib] + c1cc(-c2cnn3cc(-c4ccc(OCCN5CCCCC5)cc4)cnc23)ccn1 [Dorsomorphin] (first compound 0.2 µM, partner dose 0.4 µM)	27.3%	89.3%		55.9%	309%		106%	84.1%	72.4%	64.5%	48.8%	126%	131%	47.1%	130%	92.9%		244%	219%	
C=C(c1ccc(C(=O)O)cc1)c1cc2c(cc1C)C(C)(C)CCC2(C)C [Bexarotene] + COc1ccc(COc2ccc(Cc3cnc(N)nc3N)cc2OC)cc1 [GW2580] (first compound 2 µM, partner dose 1 µM)	22.9%	126%		191%	119%		110%	61.1%	138%	101%	98.6%	90.7%	53%	127%	112%	81.9%		65.4%	104%	
Cc1cc(Nc2cc(N3CCN(C)CC3)nc(/C=C/c3ccccc3)n2)n[nH]1 + CCc1ccc(CCOc2ccc(CC3SC(=O)NC3=O)cc2)nc1 [pioglitazone] (first compound 0.04 µM, partner dose 2 µM)	43%	361%		191%	370%		99.7%	135%	105%	179%	98.8%	129%	19%	43.5%	157%	90.2%		130%	64.7%	
Nc1ncn([C@H]2C[C@H](O)[C@@H](CO)O2)c(=O)n1 [decitabine] + Cn1cc(/C=C2\C(=O)Nc3cccnc32)c2ccccc21 [GW441756] (first compound 0.1 µM, partner dose 0.4 µM)	21.3%	118%		113%	61.4%		118%	110%	92.7%	177%	71.2%	117%	113%	51.9%	234%	100%		85.6%	49.2%	
O=C(O)c1ccc2c(c1)nc(Nc1cccc(Cl)c1)c1ccncc12 + COc1cc(N2CCC(N3CCN(C)CC3)CC2)ccc1Nc1ncc(Cl)c(Nc2ccccc2S(=O)(=O)C(C)C)n1 [NVP-TAE684] (first compound 0.4 µM, partner dose 0.08 µM)	13%	244%		109%	133%		113%	3400%	159%	82.3%	119%	186%	105%	47.9%	54.9%	61%		63.4%	52.4%	
CC(C)C[C@H](NC(=O)[C@H](Cc1ccccc1)NC(=O)c1cnccn1)B(O)O [Bortezomib] + Cn1cncc1[C@@](N)(c1ccc(Cl)cc1)c1ccc2c(c1)c(-c1cccc(Cl)c1)cc(=O)n2C [tipifarnib] (first compound 0.001 µM, partner dose 0.01 µM)	255%	102%	182%	43.3%	917%	86.6%	187%	413%	503%	169%	85.9%	185%	1790%	275%	138%	32.3%	152%			
Nc1ccn([C@@H]2O[C@H](CO)[C@@H](O)C2(F)F)c(=O)n1 [gemcitabine] + C#Cc1cccc(Nc2ncnc3cc(OCCOC)c(OCCOC)cc23)c1 [erlotinib] (first compound 0.0004 µM, partner dose 0.8 µM)	129%	122%	201%	74.9%	434%		140%	198%	196%	170%	99.4%	188%	253%	103%	85.3%	110%	170%			54.2%
O=C(O)c1ccc2c(c1)nc(Nc1cccc(Cl)c1)c1ccncc12 + Cc1cc([N+](=O)[O-])ccc1NS(=O)(=O)c1cc(Cl)ccc1Cl [FH535] (first compound 0.4 µM, partner dose 1 µM)	16.5%	228%		94.3%	916%		165%	902%	315%	93.2%	95%	95%	167%	97.9%	120%	151%				
Cc1cc(Nc2cc(N3CCN(C)CC3)nc(/C=C/c3ccccc3)n2)n[nH]1 + COc1cc2ncnc(Nc3ccc(Oc4ccccc4)cc3)c2cc1OC [SrcI1] (first compound 0.04 µM, partner dose 2 µM)	43.6%	288%		85.6%	142%		86.1%	34.8%	80.9%	74.9%	166%	92%	44.3%	90.2%	76%	130%				
O=C(O)c1ccc2c(c1)nc(Nc1cccc(Cl)c1)c1ccncc12 + c1cc(-c2cnn3cc(-c4ccc(OCCN5CCCCC5)cc4)cnc23)ccn1 [Dorsomorphin] (first compound 0.4 µM, partner dose 0.4 µM)	17.5%	198%		146%	86%		120%	21.5%	146%	184%	68.8%	256%	83.8%	104%	67.7%	57%				

Laid out differently: entries from further up

| SMILES | cleaved PARP positive nuclei fraction (A101D) | cleaved PARP positive nuclei fraction (A2058) | cleaved PARP positive nuclei fraction (A375) | cleaved PARP positive nuclei fraction (C32) | cleaved PARP positive nuclei fraction (CBRC008) | cleaved PARP positive nuclei fraction (CBRC013) | cleaved PARP positive nuclei fraction (CBRC014) | cleaved PARP positive nuclei fraction (CBRC016) | cleaved PARP positive nuclei fraction (CBRC017) | cleaved PARP positive nuclei fraction (COLO792) | cleaved PARP positive nuclei fraction (COLO800) | cleaved PARP positive nuclei fraction (COLO829) | cleaved PARP positive nuclei fraction (G361) | cleaved PARP positive nuclei fraction (IPC-298) | cleaved PARP positive nuclei fraction (IST-MEL1) | cleaved PARP positive nuclei fraction (LOXIMVI) | cleaved PARP positive nuclei fraction (MEL-HO) | cleaved PARP positive nuclei fraction (501Mel) | cleaved PARP positive nuclei fraction (LB2518-MEL) | cleaved PARP positive nuclei fraction (CBRC034) |
| --- | --- | --- | --- | --- | --- | --- | --- | --- | --- | --- | --- | --- | --- | --- | --- | --- | --- | --- | --- | --- |
| Cn1c(=O)n(-c2ccc(C(C)(C)C#N)cc2)c2c3cc(-c4cnc5ccccc5c4)ccc3ncc21 + CN(NC(=O)CC(=O)NN(C)C(=S)c1ccccc1)C(=S)c1ccccc1 [STA4783] (first compound 0.004 µM, partner dose 0.006 µM) | 103% | 141% | 1300% | 230% | 826% | 74.6% | 485% | 119% | 143% | 208% | 125% | 72.5% | 137% | 90.8% | 118% | 37.1% | 79.2% |  |  |  |
| O=C(O)c1ccc2c(c1)nc(Nc1cccc(Cl)c1)c1ccncc12 + Cc1cc([N+](=O)[O-])ccc1NS(=O)(=O)c1cc(Cl)ccc1Cl [FH535] (first compound 0.4 µM, partner dose 1 µM) | 16.5% | 228% |  | 94.3% | 916% |  | 165% | 902% | 315% | 93.2% | 95% | 95% | 167% | 97.9% | 120% | 151% |  |  |  |  |

Reference: the supplement of paper PMC4604168 (melanoma cell lines)
